# Data reported in patent publication US20160347854A1.
# Chains of the proteins cited; added tags and fusions are not shown. Lines headed by an entry give the natural chain unless they say otherwise; changes in a name come on top.
# UniProt O60667: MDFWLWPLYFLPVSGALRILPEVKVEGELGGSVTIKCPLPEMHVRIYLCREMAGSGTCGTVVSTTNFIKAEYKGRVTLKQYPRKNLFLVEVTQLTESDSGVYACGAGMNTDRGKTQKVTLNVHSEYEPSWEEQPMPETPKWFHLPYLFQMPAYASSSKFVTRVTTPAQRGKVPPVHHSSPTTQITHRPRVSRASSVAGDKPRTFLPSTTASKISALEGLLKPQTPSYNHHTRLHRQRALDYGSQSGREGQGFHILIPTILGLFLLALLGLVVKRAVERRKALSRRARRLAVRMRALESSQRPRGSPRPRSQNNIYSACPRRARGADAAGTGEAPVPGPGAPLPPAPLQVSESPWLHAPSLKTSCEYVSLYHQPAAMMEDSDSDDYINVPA
# B1: anti-TOSO scFv-Fc fusion protein (Fc fusion, not shown: a dimerising Fc or GST)
# chain: EVQLVETGGGLVQPGKSLELTCATSGFTFNTAWMHWVRQSPDKRLEWIARIKDTSNNYATDYVESMKGRFTISRDDSKGSVNLQMNSLKEEDTATYYCTTDFYDGTYYWNYWGQGVMVTVSSGGGGSGGGGSGGGGSSYELIQPPSAAVTLGNTVSLTCVGDELPKRYAYWYQQKPDQSIVRVIYEDSVRPPGISDRFSGSSSGTTATLTIRDAQNEDEADYYCQSTYGDDKLYIFGGGTKLTVLG
# Target: TOSO (UniProt O60667)
# Test: flow cytometry on TOSO-positive and TOSO-negative tumor cells, detected with PE-conjugated anti-human-IgG1 antibody
binder,measurement,value
B1,binding,binds

# No constants are given. Whether binding was seen depends on the method and setting. Binding calls can cover weak binding; strength is not graded here. Sequences can lack the tags named with a protein.
